Test results taken from PMC2423471.
No constants are given. Whether binding was seen depends on the method and setting. Binding seen in cells or lysates may run through a third protein. A yes stands for co-enrichment or nearness to the bait. Other partners may have been found.

Target: TAP-tagged AgmISG15 (African Green Monkey (Cercopithecus aethiops))
Assay: affinity purification with mass spectrometry; Tandem Affinity Purification of TAP-tagged ISG15 from 2fTGH (stable) or HekT (transient) lysates: IgG sepharose, TEV cleavage, anti-FLAG agarose, FLAG peptide elution, trypsin, nano-LC-MS/MS; the paper takes the hits as covalently ISGylated substrates

binding: binds
B1: Phosphoglycerate mutase 2 (enzyme, UniProt P15259 1-253)
chain: MATHRLVMVRHGESTWNQENRFCGWFDAELSEKGTEEAKRGAKAIKDAKMEFDICYTSVLKRAIRTLWAILDGTDQMWLPVVRTWRLNERHYGGLTGLNKAETAAKHGEEQVKIWRRSFDIPPPPMDEKHPYYNSISKERRYAGLKPGELPTCESLKDTIARALPFWNEEIVPQIKAGKRVLIAAHGNSLRGIVKHLEGMSDQAIMELNLPTGIPIVYELNKELKPTKPMQFLGDEETVRKAMEAVAAQGKAK
